Drawing on paper doi:10.1101/2023.12.06.570334, this text covers binding for 2 molecules.

The target of experiment [1] is T1, HA-PALMD (UniProt Q9JHU2).
T1 sequence: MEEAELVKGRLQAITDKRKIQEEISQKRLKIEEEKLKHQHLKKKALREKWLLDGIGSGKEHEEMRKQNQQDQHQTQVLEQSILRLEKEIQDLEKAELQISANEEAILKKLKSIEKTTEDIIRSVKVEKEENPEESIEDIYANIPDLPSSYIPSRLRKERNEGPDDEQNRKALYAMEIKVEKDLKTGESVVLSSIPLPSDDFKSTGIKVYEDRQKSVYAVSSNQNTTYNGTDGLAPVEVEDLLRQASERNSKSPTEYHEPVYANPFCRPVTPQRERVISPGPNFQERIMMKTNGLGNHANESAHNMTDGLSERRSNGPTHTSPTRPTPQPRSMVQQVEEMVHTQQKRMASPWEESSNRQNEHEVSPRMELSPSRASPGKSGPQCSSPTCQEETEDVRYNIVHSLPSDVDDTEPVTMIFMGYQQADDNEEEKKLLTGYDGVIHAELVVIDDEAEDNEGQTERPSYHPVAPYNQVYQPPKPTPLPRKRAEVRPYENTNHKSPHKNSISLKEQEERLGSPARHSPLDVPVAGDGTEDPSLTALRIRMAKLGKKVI
The experiment is described as follows: co-IP.

Experiment [2] deals with T2, FLAG-NEXN (mouse) (UniProt Q7TPW1).
T2 sequence: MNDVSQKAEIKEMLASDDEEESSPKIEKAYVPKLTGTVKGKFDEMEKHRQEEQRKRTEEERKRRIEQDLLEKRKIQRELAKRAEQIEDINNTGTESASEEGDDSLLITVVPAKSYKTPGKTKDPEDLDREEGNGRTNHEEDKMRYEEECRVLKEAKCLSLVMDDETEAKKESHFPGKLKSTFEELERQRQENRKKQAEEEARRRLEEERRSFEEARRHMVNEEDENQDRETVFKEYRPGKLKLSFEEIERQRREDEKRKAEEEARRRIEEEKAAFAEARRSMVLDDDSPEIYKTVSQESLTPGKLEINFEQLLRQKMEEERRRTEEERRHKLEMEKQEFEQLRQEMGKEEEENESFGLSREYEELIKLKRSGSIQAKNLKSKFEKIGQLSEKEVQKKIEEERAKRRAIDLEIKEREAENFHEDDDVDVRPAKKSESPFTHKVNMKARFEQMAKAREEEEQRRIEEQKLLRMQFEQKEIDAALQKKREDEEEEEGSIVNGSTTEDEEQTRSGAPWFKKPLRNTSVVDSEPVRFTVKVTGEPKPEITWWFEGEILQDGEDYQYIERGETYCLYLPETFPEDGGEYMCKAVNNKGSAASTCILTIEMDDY
In words: co-IP.

These are yes or no findings as the source states them, for the method shown. In cells and extracts the contact can be indirect. Some binding calls cover weakened binding; strength is not graded here. Tags and fused reporters may be left off the sequences shown.

B1: FLAG-NEXN (protein, UniProt Q7TPW1 1-607)
chain: MNDVSQKAEIKEMLASDDEEESSPKIEKAYVPKLTGTVKGKFDEMEKHRQEEQRKRTEEERKRRIEQDLLEKRKIQRELAKRAEQIEDINNTGTESASEEGDDSLLITVVPAKSYKTPGKTKDPEDLDREEGNGRTNHEEDKMRYEEECRVLKEAKCLSLVMDDETEAKKESHFPGKLKSTFEELERQRQENRKKQAEEEARRRLEEERRSFEEARRHMVNEEDENQDRETVFKEYRPGKLKLSFEEIERQRREDEKRKAEEEARRRIEEEKAAFAEARRSMVLDDDSPEIYKTVSQESLTPGKLEINFEQLLRQKMEEERRRTEEERRHKLEMEKQEFEQLRQEMGKEEEENESFGLSREYEELIKLKRSGSIQAKNLKSKFEKIGQLSEKEVQKKIEEERAKRRAIDLEIKEREAENFHEDDDVDVRPAKKSESPFTHKVNMKARFEQMAKAREEEEQRRIEEQKLLRMQFEQKEIDAALQKKREDEEEEEGSIVNGSTTEDEEQTRSGAPWFKKPLRNTSVVDSEPVRFTVKVTGEPKPEITWWFEGEILQDGEDYQYIERGETYCLYLPETFPEDGGEYMCKAVNNKGSAASTCILTIEMDDY
On to B1, for which, in experiment [1], the binding entry is listed as “binds”.

B2: HA-PALMD (protein, UniProt Q9JHU2 1-551)
chain: MEEAELVKGRLQAITDKRKIQEEISQKRLKIEEEKLKHQHLKKKALREKWLLDGIGSGKEHEEMRKQNQQDQHQTQVLEQSILRLEKEIQDLEKAELQISANEEAILKKLKSIEKTTEDIIRSVKVEKEENPEESIEDIYANIPDLPSSYIPSRLRKERNEGPDDEQNRKALYAMEIKVEKDLKTGESVVLSSIPLPSDDFKSTGIKVYEDRQKSVYAVSSNQNTTYNGTDGLAPVEVEDLLRQASERNSKSPTEYHEPVYANPFCRPVTPQRERVISPGPNFQERIMMKTNGLGNHANESAHNMTDGLSERRSNGPTHTSPTRPTPQPRSMVQQVEEMVHTQQKRMASPWEESSNRQNEHEVSPRMELSPSRASPGKSGPQCSSPTCQEETEDVRYNIVHSLPSDVDDTEPVTMIFMGYQQADDNEEEKKLLTGYDGVIHAELVVIDDEAEDNEGQTERPSYHPVAPYNQVYQPPKPTPLPRKRAEVRPYENTNHKSPHKNSISLKEQEERLGSPARHSPLDVPVAGDGTEDPSLTALRIRMAKLGKKVI
In the case of B2, in experiment [2], the binding entry was “binds”.
